# From PubChem BioAssay AID1688 (National Center for Advancing Translational Sciences (NCATS), 2009)
# Among all 220,000 compounds or so, about 2,400 (1.1%) were called active. The shares of active, inactive and inconclusive entries below differ from those in the screen. The call rests on the fitted dose curve; in most records, active means well fitted inhibition curve with a large enough effect; inconclusive means small, poorly fitted or top-dose-only effect, or effect the other way; inactive means no such curve, though single readings can be large or run the other way. A potency beside an inconclusive call is a rough fit, not a confirmed value.
# Assay: qHTS Multiplex Assay to Identify Dual Action Probes in a Cell Model of Huntington: Aggregate Formation (GFP); further: nearly all actives have a fitted effect of over 60% in size
# Conditions: PC12 HttQ103-GFP aggregates, Acumen cytometry, 40 h; activity change, negative = inhibition: at 46.1 µM (top of the series) unless noted
# Outline: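 PC12 cells stably carrying ecdysone-inducible HTT exon 1 Q103–GFP were induced with tebufenozide (100 nM final) and treated with library compounds in titration. GFP aggregates in lysates were counted by laser scanning cytometry.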
# On the % scale 0 is the no-effect control and ±100 the full control effect; potency means the concentration at half of the fitted maximal effect.
SMILES,Potency,"activity change, negative = inhibition"
CCC(=O)Oc1ccc(NC(=O)CSCc2ccccc2)cc1,"inconclusive: 11.2 µM [activator, partial curve]",
Cc1onc(-c2ccccc2Cl)c1C(=O)N(C)C1CCCCC1,active: 14.1 µM,
CCOC(=O)c1nnc(-c2ccc(C)cc2)nc1Oc1ccccc1Cl,active: 22.4 µM,
COc1ccc(-n2c(O)c(/C=N/Nc3nc(C)cc(C)n3)c3ccccc3c2=O)cc1OC,"inconclusive: 22.4 µM [inhibitor, single point]",
CC1Cc2cc(-c3csc(NC(=O)Cc4ccccc4)n3)ccc2N1S(C)(=O)=O (stereo not given),"inconclusive: 11.2 µM [inhibitor, single point]",
N#Cc1cc(N)c(Nc2ccccc2)cc1C#N,"inconclusive: 7.08 µM [inhibitor, full curve]",
S=C(NCCC1=CCCCC1)NCc1ccco1,"inconclusive: 10 µM [inhibitor, partial curve]",
COc1ccc(OC)c(NS(=O)(=O)c2ccc(N3CCCC3=O)cc2)c1,"inconclusive: 10 µM [activator, partial curve]",
CCOc1ccc(NC(=O)c2ccccc2SC)cc1,"inconclusive: 0.355 µM [activator, partial curve]",
COc1ccc(C(=O)c2cc([N+](=O)[O-])ccc2N2CCOCC2)cc1,"inconclusive: 35.5 µM [activator, single point]",
COCc1ccc(CN2CCc3c([nH]c4ccccc34)C2C(C)(C)C)o1 (stereo not given),"inconclusive: 0.224 µM [inhibitor, full curve, poor fit]",
Cc1cc(C)c2cc(CN(Cc3ccco3)C(=O)NCc3ccccc3)c(=O)[nH]c2c1,"inconclusive: 35.5 µM [inhibitor, single point]",
CC1CN(C(=S)c2cccc([N+](=O)[O-])c2)CC(C)O1 (stereo not given),"inconclusive: 3.16 µM [activator, single point]",
CCOC(=O)Cn1c(=O)oc2cc(S(=O)(=O)Nc3ccc(N(CC)CC)cc3C)ccc21,"inconclusive: 5.62 µM [activator, single point]",
Cc1cc(C[n+]2cc(Br)ccc2N)c2ncccc2c1,,inactive: 4.32% [at 9.22 µM]
CCCCN(CCCC)CCNC(=O)CSCc1ccc(C)cc1,,inactive: 2.63%
CCc1ccc(C(=O)N2CCN(c3ccc(F)cc3)CC2)s1,"inconclusive: 1.26 µM [activator, single point]",
COc1cc(/C=C2\SC(=S)NC2=O)ccc1OS(=O)(=O)c1ccccc1,"inconclusive: 14.1 µM [inhibitor, single point]",
CC1CCN(c2ncnc3c2cnn3Cc2ccc(Cl)cc2)CC1,"inconclusive: 12.6 µM [inhibitor, single point]",
CC(=O)c1c(C)[nH]c(C(=O)Nc2cccc(S(=O)(=O)N(C)c3ccccc3)c2)c1C,"inconclusive: 35.5 µM [inhibitor, single point]",
O=C(NCc1ccco1)Nc1ccccc1Cl,"inconclusive: 35.5 µM [inhibitor, single point]",
CN(CC(=O)NC1CCCCC1)S(=O)(=O)c1ccc(Br)s1,"inconclusive: 2 µM [activator, partial curve]",
Cc1cccc(-n2nc([N+](=O)[O-])c(=NC3CCN(Cc4ccccc4)CC3)n2O)c1,"inconclusive: 25.1 µM [inhibitor, single point]",
Cc1cc(C)c(NC(=O)C2CCCN2CCO)c(C)c1 (stereo not given),"inconclusive: 5.62 µM [inhibitor, single point]",

# 5 records drawn at random from the list so far, as already listed:
SMILES,Potency,"activity change, negative = inhibition"
Cc1cc(C[n+]2cc(Br)ccc2N)c2ncccc2c1,,inactive: 4.32% [at 9.22 µM]
COc1ccc(OC)c(NS(=O)(=O)c2ccc(N3CCCC3=O)cc2)c1,"inconclusive: 10 µM [activator, partial curve]",
N#Cc1cc(N)c(Nc2ccccc2)cc1C#N,"inconclusive: 7.08 µM [inhibitor, full curve]",
CCOc1ccc(NC(=O)c2ccccc2SC)cc1,"inconclusive: 0.355 µM [activator, partial curve]",
CCOC(=O)Cn1c(=O)oc2cc(S(=O)(=O)Nc3ccc(N(CC)CC)cc3C)ccc21,"inconclusive: 5.62 µM [activator, single point]",

# The list continues:

SMILES,Potency,"activity change, negative = inhibition"
CC(c1n[nH]c(=S)n1-c1ccc(Cl)cc1)N(C)C (stereo not given),"inconclusive: 5.62 µM [inhibitor, single point]",
Cc1ccc(S(=O)(=O)N/N=C2/CC(c3ccccc3)Oc3ccccc32)cc1[N+](=O)[O-] (stereo not given),"inconclusive: 15.8 µM [inhibitor, single point]",
CCc1ccc(NC(=S)N(Cc2ccccc2)Cc2ccccn2)cc1,"inconclusive: 35.5 µM [inhibitor, single point]",
ClC(Cl)(c1nnnn1-c1ccccc1)c1nnnn1-c1ccccc1,"inconclusive: 35.5 µM [inhibitor, single point]",
O=C1c2ccccc2C(=O)c2c1ncn2-c1ccccc1,"inconclusive: 35.5 µM [inhibitor, single point]",
Cc1ccc(-c2noc(CCC(=O)NC3CCCc4ccccc43)n2)cc1 (stereo not given),active: 3.16 µM,
CCn1c(C)cc(/C=C2/NC(=O)N(c3ccccc3)C2=O)c1C,"inconclusive: 1.41 µM [activator, partial curve]",
N=C(N)c1ccc2cc(OC(=O)c3ccc(N=C(N)N)cc3)ccc2c1,,inactive: 2.95%
CCOC(=O)c1c(NC(NC(C)=O)C(Cl)(Cl)Cl)sc(C(C)=O)c1C (stereo not given),"inconclusive: 15.8 µM [inhibitor, single point]",
CCC(=O)Nc1cc(ON=C(C)C)cc([N+](=O)[O-])c1,,inactive: 16%
Cc1cc(Nc2ncc(Cl)cc2Cl)n[nH]1,"inconclusive: 3.55 µM [activator, single point]",
O=C(C1CCCN(S(=O)(=O)c2cnc[nH]2)C1)N1CCN(c2ccc(Cl)cc2)CC1 (stereo not given),"inconclusive: 10 µM [inhibitor, partial curve]",
Cc1ccc(S(=O)(=O)NN=C2CCC(C(C)(C)C)CC2)cc1[N+](=O)[O-] (stereo not given),,inactive: 4.46%
COCc1ccc([C@@H]2C[C@H]3CN(Cc4ccccc4C)C(=O)[C@]34CCCN24)o1,active: 4.47 µM,
COc1ccccc1Oc1ccc(NC(=O)c2ccccc2C)cc1,"inconclusive: 35.5 µM [inhibitor, single point]",
Cc1cc(C)n(CCc2nc(-c3cc4ccccc4o3)cs2)n1,"inconclusive: 35.5 µM [inhibitor, single point]",
O=[N+]([O-])c1ccc(O)c(/C=N/Nc2nn[nH]n2)c1,,inactive: 0.265%
CC1(C)Cc2c(sc3c2c(=N)n(Cc2ccco2)c(=O)n3CC(=O)Nc2ccc(Cl)cc2)CO1,"inconclusive: 0.794 µM [inhibitor, full curve, poor fit]",
O=[N+]([O-])c1ccc(Sc2nnnn2-c2ccccc2)nc1,"inconclusive: 35.5 µM [inhibitor, single point]",
CCOC(=O)C(=Cc1ccc(-n2ccnc2)cc1)C(=O)OCC,,inactive: 19.4%
COc1ccccc1-c1c(-c2ccc(OCC(=O)NN)cc2O)n[nH]c1C(F)(F)F,,inactive: 15.9%
COc1ccc(Nc2ncnc3sc(-c4ccccc4)cc23)cc1OC,,inactive: -26.3%
CC1CCCN(C(=O)C2CCC(CNc3c(N4CCCCC4)c(=O)c3=O)CC2)C1 (stereo not given),,inactive: 0% [at 9.22 µM]
COc1ccccc1CC(=O)N1CCN(c2cccc(C(F)(F)F)c2)CC1,active: 12.6 µM,

SMILES,Potency,"activity change, negative = inhibition"
CC(=O)n1cc([C@H]2C=C(C(=O)NCc3ccccc3)O[C@@H](OCc3ccc(CO)cc3)C2)c2ccccc21,,inactive: 17.2% [at 9.22 µM]
COc1ccc(N/C=C/c2nc(SC)nnc2C)cc1,,inactive: 17.4%
CCCCC(=O)Nc1ccc2c(c1)nc1n2CCSC1,,inactive: -9.95%
Nc1nc(CSC(=S)N2CCOCC2)nc(Nc2ccc(F)cc2)n1,"inconclusive: 1 µM [inhibitor, single point]",
CCSc1nnc(NC(=O)NC(CC)(C(F)(F)F)C(F)(F)F)s1,"inconclusive: 35.5 µM [inhibitor, single point]",
Fc1ccc(/C=N/N2CCOCC2)c(F)c1,,inactive: -6.33%
COc1ccc2[nH]c3c(NCCC4=CCCCC4)ncnc3c2c1,active: 12.6 µM,
CCN(C(=O)CSc1cc(C)c2ccccc2n1)c1c(N)n(Cc2ccccc2)c(=O)[nH]c1=O,,inactive: 14%
Cc1ccc(CC(=O)Nc2ccc(OC(F)F)c(Cl)c2)cc1C,"inconclusive: 15.8 µM [inhibitor, single point]",
O=C(NCCc1ccc(Cl)cc1)C1CCN(S(=O)(=O)N2CCCCC2)CC1,"inconclusive: 28.2 µM [inhibitor, single point]",
CC1CCCN(S(=O)(=O)c2ccc(C(=O)Nc3nnc(-c4ccncc4)o3)cc2)C1 (stereo not given),"inconclusive: 14.1 µM [inhibitor, partial curve]",
Cc1cccc(N2CCc3c2nc2ccc(Br)cc2c3N)c1,"inconclusive: 35.5 µM [inhibitor, single point]",
CCOC(=O)c1cnc2c(C)c(Cl)ccc2c1Nc1ccc(S(=O)(=O)Nc2ncccn2)cc1,,inactive: 10.4%
c1ccc2c(N3CCOCC3)nc(-c3ccncc3)nc2c1,"inconclusive: 35.5 µM [inhibitor, single point]",
O=C(NC(=S)Nc1ccc(Cc2ccncc2)cc1)c1ccc(F)cc1,"inconclusive: 17.8 µM [inhibitor, single point]",
CCOc1cc2c3c(c1)C1(C(=O)N3C(C)(C)C=C2C)C(C#N)=C(N)Oc2cc(O)ccc21 (stereo not given),"inconclusive: 35.5 µM [inhibitor, single point]",
Cc1ccc(CNc2ccc(N3C(=O)CCCC3=O)cc2[N+](=O)[O-])cc1,"inconclusive: 35.5 µM [inhibitor, single point]",
COc1ccc(NC(=O)C(Cl)=C(Cl)Cl)cn1,"inconclusive: 35.5 µM [inhibitor, single point]",
O=C(NNC1=NCCC1)C1CC1,"inconclusive: 1.58 µM [inhibitor, partial curve, poor fit]",
COc1ccc(S(=O)(=O)c2ccc(OC)cc2)cc1,,inactive: -6.47%
COCCNc1nc(-n2nc(C)cc2C)nc2sc3c(c12)CCCC3,"inconclusive: 17.8 µM [inhibitor, single point]",
CCCCC(=O)NC(=S)NNC(=O)c1ccc(OC)cc1,active: 10 µM,
